Source: PubChem BioAssay AID1259254 (NCATS, 2017)
This is a random part of about 59,000 reagents. Of all reagents, about 1,550 (2.6%) are marked active. 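G2 share is only a proxy for re-replication; each gene was hit by three separate siRNAs, and active genes were retested.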 Reagents against one gene are numbered here. Further read-outs or replicates are left out here. The record does not give: the amount of reagent.

Test: 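Finding genes that stop cells copying their DNA twice in one cycle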 (primary screen)
System: human HCT116 colorectal cancer cells
Knock-down reagent: single siRNA against human genes
Time to read-out: 3 days
Read-out: 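Imaged Hoechst DNA stain sorts each cell into a cycle phase by DNA amount; per plate, G2 fraction set to 0% for non-targeting and 100% for GMNN siRNA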
Direction: G2 robust z-score and G2 cells, % of GMNN control: higher = more G2 cells, more excess DNA replication
Hit rule: 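An siRNA counts as active if its G2 robust z-score lies at least 5 MADs above the screen median; here such calls match roughly 38% of GMNN control or more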

The first 2 entries, ahead of the listing:
Target gene | reagent no. | G2 robust z-score | G2 cells, % of GMNN control | activity call
ATP2C1 (GeneID 27032) | 1 | 0.621 | 7.34 | inactive
ATP2C1 (GeneID 27032) | 2 | 1.78 | 15.5 | inactive

The listing, repeating the preview:
Target gene | reagent no. | G2 robust z-score | G2 cells, % of GMNN control | activity call
ATP2C1 (GeneID 27032) | 1 | 0.621 | 7.34 | inactive
ATP2C1 (GeneID 27032) | 2 | 1.78 | 15.5 | inactive
ATP2C1 (GeneID 27032) | 3 | 0.598 | 7.18 | inactive
TGFBR3L (GeneID 100507588) | 1 | 0.00111 | 2.98 | inactive
TGFBR3L (GeneID 100507588) | 2 | 0.496 | 6.46 | inactive
TGFBR3L (GeneID 100507588) | 3 | 1.7 | 14.9 | inactive
TNPO3 (GeneID 23534) | 1 | 0.0146 | 3.07 | inactive
TNPO3 (GeneID 23534) | 2 | 0.21 | 4.45 | inactive
TNPO3 (GeneID 23534) | 3 | -0.175 | 1.74 | inactive
TUBB (GeneID 203068) | 1 | 2.33 | 19.4 | inactive
TUBB (GeneID 203068) | 2 | 1.1 | 10.7 | inactive
TUBB (GeneID 203068) | 3 | 1.2 | 11.4 | inactive
VPS37C (GeneID 55048) | 1 | 4.09 | 31.7 | inactive
VPS37C (GeneID 55048) | 2 | -0.501 | -0.559 | inactive
VPS37C (GeneID 55048) | 3 | -0.851 | -3.02 | inactive
CEP192P1 (GeneID 643201) | 1 | -0.576 | -1.08 | inactive
CEP192P1 (GeneID 643201) | 2 | -0.0533 | 2.59 | inactive
CEP192P1 (GeneID 643201) | 3 | -1.11 | -4.86 | inactive
PTHLH (GeneID 5744) | 1 | 4.66 | 35.7 | inactive
PTHLH (GeneID 5744) | 2 | 1.13 | 10.9 | inactive
PTHLH (GeneID 5744) | 3 | 1.48 | 13.4 | inactive
AHCYL2 (GeneID 23382) | 1 | -1.28 | -6.04 | inactive
AHCYL2 (GeneID 23382) | 2 | -0.724 | -2.13 | inactive
AHCYL2 (GeneID 23382) | 3 | -0.162 | 1.83 | inactive
DEFB115 (GeneID 245929) | 1 | -0.88 | -3.22 | inactive
DEFB115 (GeneID 245929) | 2 | -0.709 | -2.02 | inactive
DEFB115 (GeneID 245929) | 3 | -0.945 | -3.68 | inactive
FARSA (GeneID 2193) | 1 | 0.0675 | 3.44 | inactive
FARSA (GeneID 2193) | 2 | -1.05 | -4.45 | inactive
FARSA (GeneID 2193) | 3 | -0.987 | -3.98 | inactive
